Reference: patent US20080234332A1, “RAF KINASE INHIBITORS CONTAINING A ZINC BINDING MOIETY” (priority 2007, published 2008)
For at least one compound, name, drawing or mass did not settle the structure.

Test system: HDAC
Assay: HDAC fluorimetric assay kit (HeLa nuclear extract)
Type: biochemical
Conditions: read-out: HDAC IC50 grade
Procedure: HDAC inhibitors were screened using an HDAC fluorimetric assay kit (AK-500, Biomol, Plymouth Meeting, Pa.). […] Each assay was setup as follows: Defrosted all kit components and kept on ice until use. Diluted HeLa nuclear extract 1:29 in assay buffer (50 mM Tris/Cl, pH 8.0, 137 mM NaCl, 2.7 mM KCl, 1 mM MgCl2). Prepared dilutions of Trichostatin A (TSA, positive control) and tested compounds in assay buffer (5× of final concentration). Diluted Fluor de LysTM Substrate in assay buffer to 100 uM (50 fold=2× final). Diluted Fluor de LysTM developer concentrate 20-fold (e.g. 50 μl plus 950 μl assay buffer) in cold assay buffer. […] Allowed diluted Fluor de LysTM Substrate and the samples in the microtiter plate to equilibrate to assay temperature (e.g. 25 or 37° C. Initiated HDAC reactions by adding diluted substrate (25 μl) to each well and mixing thoroughly. Allowed HDAC reactions to proceed for 1 hour and then stopped them by addition of Fluor de LysTM Developer (50 μl). Incubated plate at room temperature (25° C.) for 10-15 min. Read samples in a microtiter-plate reading fluorimeter capable of excitation at a wavelength in the range 350-380 nm and detection of emitted light in the range 440-460 nm. […]

O=C(CCNC(=O)c1cc(Oc2ccc(NC(=O)Nc3ccc(Cl)c(C(F)(F)F)c3)cc2)ccn1)NO [Compound 2, 4-(4-(3-(4-chloro-3-(trifluoromethyl)phenyl)ureido)phenoxy)-N-(3-(hydroxyamino)-3-oxopropyl)picolinamide]
IC50: 1 to 10 µM
